Experimental data as given in publication PMC6620326, “Structural characterization of life-extending Caenorhabditis elegans Lipid Binding Protein 8” (Scientific Reports, 2019).
No constants are given. Whether binding was seen depends on the method and setting.

Biological target: Caenorhabditis elegans Lipid Binding Protein 8 (LBP-8), wild type, full length (Caenorhabditis elegans) (UniProt O02324)
Assay: SEC; HiLoad 16/60 Superdex 75 column, compared with gel filtration standards; 20 mM Tris HCl pH 7.4, 150 mM NaCl, 5% glycerol; both purified

B1: Caenorhabditis elegans Lipid Binding Protein 8 (LBP-8), wild type, full length (protein, UniProt O02324 1-137)
chain: MVSMKEFIGRWKLVHSENFEEYLKEIGVGLLIRKAASLTSPTLEIKLDGDTWHFNQYSTFKNNKLAFKIREKFVEIAPDERSYNTLVTFENGKFISHQDKIKENHHSSVFTTWLENGKLLQTYQSGSVICRREFVKE
- binding: no binding
